This passage reports binding signal results from PMC7819943, “Rice protein-binding microarrays: a tool to detect cis-acting elements near promoter regions in rice”.

The list shows a part of the results.

In this assay the target is T1, OsSMF1 (Oryza sativa, UniProt Q6ZLB0 1-436).
T1 sequence: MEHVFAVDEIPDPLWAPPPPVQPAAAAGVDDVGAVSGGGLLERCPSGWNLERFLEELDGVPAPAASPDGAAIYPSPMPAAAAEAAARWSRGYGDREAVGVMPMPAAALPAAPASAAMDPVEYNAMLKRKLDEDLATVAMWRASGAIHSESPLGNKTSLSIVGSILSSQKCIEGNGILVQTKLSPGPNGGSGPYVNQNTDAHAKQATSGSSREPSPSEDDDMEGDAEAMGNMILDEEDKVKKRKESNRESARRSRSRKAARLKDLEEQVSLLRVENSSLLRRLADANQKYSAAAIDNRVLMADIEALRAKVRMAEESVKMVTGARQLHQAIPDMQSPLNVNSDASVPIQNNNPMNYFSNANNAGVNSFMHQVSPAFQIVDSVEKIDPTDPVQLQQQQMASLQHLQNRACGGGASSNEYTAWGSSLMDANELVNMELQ
Briefly: protein-binding microarray (RPBM); PBS, 2% BSA, 51.3 ng/ul salmon testes DNA, 50 uM zinc acetate, 200 nM TF, 25 C, 1 h; high values mean tight binding. The conditions noted are these: protein: recombinant; tags: N-terminal polyhistidine and DsRed monomer fusion (pET32a); chain copies: 2; label: CyDye5-dUTP incorporated in the synthesized complementary strand; 3' TTTTT single-stranded linker to array surface; dsDNA, one strand shown. The essentials: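 Binding signal here means per-feature fluorescence intensity in arbitrary units. The values were read on an Axon 4000B scanner after a custom Agilent array, double-stranded by primer extension with Cy5-dUTP, was incubated with 200 nM protein at 25 °C for 1 h in PBS with 2% BSA, salmon testes DNA and 50 µM zinc acetate, then washed. The proteins were transcription factors with an N-terminal polyhistidine tag and DsRed, expressed in E. coli BL21-CodonPlus and purified on Ni–NTA.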
In the case of “TTATGAGAAATTACGTAATGCTATTCTCAACCATGCAACCCGGAGTCACCTAGTGCAG”, the binding signal was 3460 fluorescence intensity (a.u.).

Turning to “TGATCGATCACTCTCACACAGCTAGCTGCACGTAAGCTAGCGGAGTCACCTAGTGCAG”, the binding signal is 3200 fluorescence intensity (a.u.).

Turning to “GTTGGATAGAGTAGAGGGAGGAGTAAGTATGTCATGTGGGCGGAGTCACCTAGTGCAG”, the binding signal is 3220 fluorescence intensity (a.u.).

In the case of “GGTCATGGTTTTGGCACGCTTGGATTTGACGCCGCCGGCACGGAGTCACCTAGTGCAG”, the binding signal is 3700 fluorescence intensity (a.u.).

In the case of “CGCGACGAGATTGGGTTTCGGTCGTCGTACCGTGTCCGTGCGGAGTCACCTAGTGCAG”, the binding signal was 3680 fluorescence intensity (a.u.).

“GAATAACCCCTTGCAATAATTTTATTTACGGATAGGTCCCCGGAGTCACCTAGTGCAG”: the binding signal was 17200 fluorescence intensity (a.u.).

Regarding “GTTTTCCAAAATTTCTTCGTCACGCCCAATTTATCGGATCCGGAGTCACCTAGTGCAG”, the binding signal is 4120 fluorescence intensity (a.u.).

As to “TCGAGCTCCACGTAGGCGACGGCGTCCAGTTCGTAGGCGTCGGAGTCACCTAGTGCAG”, the binding signal is 13000 fluorescence intensity (a.u.).

For the sequence “GTACTCACTCTCAGTGTCACTCACTTCACTGCTTACACCGCGGAGTCACCTAGTGCAG”, the binding signal was 4370 fluorescence intensity (a.u.).

As for “CCGCCCCGCCTGCGAAGACCCTTTTCGGCCGCTTGCGATACGGAGTCACCTAGTGCAG”, the binding signal is 3290 fluorescence intensity (a.u.).

On to “GGAGCCTCATTAGCCTGAGTCAGGCGACCGTTTTCGGTCGCGGAGTCACCTAGTGCAG”, for which the binding signal is 4840 fluorescence intensity (a.u.).

Regarding “ACTCCACCATGGCCGACATGTCAGCGTGCGTTCGTCGATACGGAGTCACCTAGTGCAG”, the binding signal was 5650 fluorescence intensity (a.u.).

For “GGGCACACAAGGAATTTACTCTTATCATTTAGATGGAGATCGGAGTCACCTAGTGCAG”, the binding signal is 18200 fluorescence intensity (a.u.).

Turning to “GGCGAGCAATACCATAGCGTTGGTGTCCGGACCACCACTACGGAGTCACCTAGTGCAG”, the binding signal was 3410 fluorescence intensity (a.u.).

As to “GCTAAGAGCAATAGTAGGGAAACAGACCAGTGACCTGGTGCGGAGTCACCTAGTGCAG”, the binding signal was 4280 fluorescence intensity (a.u.).

Regarding “ATAGCTAAAGAAGAAGGAGAAGCTACGTACGTGTACATGACGGAGTCACCTAGTGCAG”, the binding signal was 5640 fluorescence intensity (a.u.).

For “ACTGGGTCAGTTCTCTTTGACAGTTCACTGCTGTCTCTAGCGGAGTCACCTAGTGCAG”, the binding signal is 3860 fluorescence intensity (a.u.).

In the case of “TCCGGGCTGGGTGGGTGGGGTGGGGATGGAGCTTGCCTGGCGGAGTCACCTAGTGCAG”, the binding signal was 9640 fluorescence intensity (a.u.).

As to “GTAAAAGTAACAAGTTTAATAGATGTACGTTTTATCGCAACGGAGTCACCTAGTGCAG”, the binding signal is 31900 fluorescence intensity (a.u.).

As to “GACTAATTAGGCTCAAAATATTCGTGTCGCGATTTTCATGCGGAGTCACCTAGTGCAG”, the binding signal was 3500 fluorescence intensity (a.u.).

Consider “TTGCTGAATTGATGACTTCCGCTCCTGGATTGCATGCATGCGGAGTCACCTAGTGCAG”, for which the binding signal was 3180 fluorescence intensity (a.u.).

On to “GAACTCGCGACACCCGCCGGCGAAGGAGCAGCAGCACAGGCGGAGTCACCTAGTGCAG”, for which the binding signal is 5010 fluorescence intensity (a.u.).

Turning to “ACTTGTCAATTTCCCATCACAAAGAACTAAAACCACCCATCGGAGTCACCTAGTGCAG”, the binding signal was 16700 fluorescence intensity (a.u.).

For “ATTCAGATATTAGTGCAACTGCGCCATGACCACCAAAGAACGGAGTCACCTAGTGCAG”, the binding signal was 3710 fluorescence intensity (a.u.).

For “AATTCTGCCTACCGCCGCTTCATTTTGTGGCCTTGGGATCCGGAGTCACCTAGTGCAG”, the binding signal is 20100 fluorescence intensity (a.u.).

Consider “GTGGTTGGTGACAGCAACTCGCCTCCTTCCTCCTCACTCCCGGAGTCACCTAGTGCAG”, for which the binding signal was 4080 fluorescence intensity (a.u.).

As for “CTAGCTCTTGATGCGTATTTGTCCCTTCAGTGAATCAGTGCGGAGTCACCTAGTGCAG”, the binding signal is 3210 fluorescence intensity (a.u.).

Consider “AATCGTCGCGGTTAAAATAAACTGATTTTAACTTACTACACGGAGTCACCTAGTGCAG”, for which the binding signal was 3200 fluorescence intensity (a.u.).

As for “ACAAACTTCAAGTCACCAGTATAATTTTCGTTATTTCTGTCGGAGTCACCTAGTGCAG”, the binding signal is 3190 fluorescence intensity (a.u.).

Turning to “ATGCATACATGCCAGATATGACCAAAATTTGACGGTTCGCCGGAGTCACCTAGTGCAG”, the binding signal was 3260 fluorescence intensity (a.u.).

For the sequence “GCACTCTGCCTCCGTTGCCGCCGACGCAGCATGGTCAAGTCGGAGTCACCTAGTGCAG”, the binding signal is 7890 fluorescence intensity (a.u.).

For “ACACAGGTCGGTCTCTCTGCCTGCCTTTCGGAACGGGAAGCGGAGTCACCTAGTGCAG”, the binding signal was 4690 fluorescence intensity (a.u.).

With “ACCCGGCGCCGGAGACGCCACCGCCGCATCCTCTGTCCGCCGGAGTCACCTAGTGCAG”, the binding signal is 4220 fluorescence intensity (a.u.).

In the case of “CACTCCGACCCGACGGCCTCGTCCACGTCACGTGTGCCGCCGGAGTCACCTAGTGCAG”, the binding signal is 18400 fluorescence intensity (a.u.).

Turning to “ACCAGGGGAGGGGACAGCACACACTATCCATTCCAGTGCCCGGAGTCACCTAGTGCAG”, the binding signal was 4110 fluorescence intensity (a.u.).

For the sequence “TTCTTAATCAACCTACGTCACTTGCATGCTAGCTCAGGCACGGAGTCACCTAGTGCAG”, the binding signal was 4940 fluorescence intensity (a.u.).

Regarding “CTAGTTCACCTGTCTTTATCAGTTTGCGTTGTGTCATCCGCGGAGTCACCTAGTGCAG”, the binding signal is 4320 fluorescence intensity (a.u.).

For the sequence “CAGCCCGACGGCGGCTGCAGACGTGGTTTCTTCCTCCGCCCGGAGTCACCTAGTGCAG”, the binding signal is 3200 fluorescence intensity (a.u.).

Turning to “GGAGCAACGGATCCACCGGCTCTGACGCCGATGAACGCGGCGGAGTCACCTAGTGCAG”, the binding signal is 3330 fluorescence intensity (a.u.).

For “AAAGACAGTCTAACTTCGATTTGTACAGGATAAACAAACCCGGAGTCACCTAGTGCAG”, the binding signal is 17100 fluorescence intensity (a.u.).

As to “GCCAATAATTTTCCAACTCATGTACTTAAGCTGAAAGTTGCGGAGTCACCTAGTGCAG”, the binding signal was 3610 fluorescence intensity (a.u.).

On to “GGTGGTGACAGCCCTGCCCGTACTTTGCATCCCTCCACGTCGGAGTCACCTAGTGCAG”, for which the binding signal is 4540 fluorescence intensity (a.u.).
